The chains are these.
B1: peroxiredoxin 5 (protein, UniProt P30044 53-214)
chain: MAPIKVGDAIPAVEVFEGEPGNKVNLAELFKGKKGVLFGVPGAFTPGCSKTHLPGFVEQAEALKAKGVQVVACLSVNDAFVTGEWGRAHKAEGKVRLLADPTGAFGKETDLLLDDSLVSIFGNRRLKRFSMVVQDGIVKALNVEPDGTGLTCSLAPNIISQL
B2: TBC1 domain family member 15 (protein, UniProt Q8TC07 1-691)
chain: MAAAGVVSGKIIYEQEGVYIHSSCGKTNDQDGLISGILRVLEKDAEVIVDWRPLDDALDSSSILYARKDSSSVVEWTQAPKERGHRGSEHLNSYEAEWDMVNTVSFKRKPHTNGDAPSHRNGKSKWSFLFSLTDLKSIKQNKEGMGWSYLVFCLKDDVVLPALHFHQGDSKLLIESLEKYVVLCESPQDKRTLLVNCQNKSLSQSFENLLDEPAYGLIQAGLLDRRKLLWAIHHWKKIKKDPYTATMIGFSKVTNYIFDSLRGSDPSTHQRPPSEMADFLSDAIPGLKINQQEEPGFEVITRIDLGERPVVQRREPVSLEEWTKNIDSEGRILNVDNMKQMIFRGGLSHALRKQAWKFLLGYFPWDSTKEERTQLQKQKTDEYFRMKLQWKSISQEQEKRNSRLRDYRSLIEKDVNRTDRTNKFYEGQDNPGLILLHDILMTYCMYDFDLGYVQGMSDLLSPLLYVMENEVDAFWCFASYMDQMHQNFEEQMQGMKTQLIQLSTLLRLLDSGFCSYLESQDSGYLYFCFRWLLIRFKREFSFLDILRLWEVMWTELPCTNFHLLLCCAILESEKQQIMEKHYGFNEILKHINELSMKIDVEDILCKAEAISLQMVKCKELPQAVCEILGLQGSEVTTPDSDVGEDENVVMTPCPTSAFQSNALPTLSASGARNDSPTQIPVSSDVCRLTPA
B3: pleckstrin homology domain containing A5 (protein, UniProt Q9HAU0 1-1116)
chain: MAADLNLEWISLPRSWTYGITRGGRVFFINEEAKSTTWLHPVTGEAVVTGHRRQSTDLPTGWEEAYTFEGARYYINHNERKVTCKHPVTGQPSQDNCIFVVNEQTVATMTSEEKKERPISMINEASNYNVTSDYAVHPMSPVGRTSRASKKVHNFGKRSNSIKRNPNAPVVRRGWLYKQDSTGMKLWKKRWFVLSDLCLFYYRDEKEEGILGSILLPSFQIALLTSEDHINRKYAFKAAHPNMRTYYFCTDTGKEMELWMKAMLDAALVQTEPVKRVDKITSENAPTKETNNIPNHRVLIKPEIQNNQKNKEMSKIEEKKALEAEKYGFQKDGQDRPLTKINSVKLNSLPSEYESGSACPAQTVHYRPINLSSSENKIVNVSLADLRGGNRPNTGPLYTEADRVIQRTNSMQQLEQWIKIQKGRGHEEETRGVISYQTLPRNMPSHRAQIMARYPEGYRTLPRNSKTRPESICSVTPSTHDKTLGPGAEEKRRSMRDDTMWQLYEWQQRQFYNKQSTLPRHSTLSSPKTMVNISDQTMHSIPTSPSHGSIAAYQGYSPQRTYRSEVSSPIQRGDVTIDRRHRAHHPKHVYVPDRRSVPAGLTLQSVSPQSLQGKTLSQDEGRGTLYKYRPEEVDIDAKLSRLCEQDKVVHALEEKLQQLHKEKYTLEQALLSASQEIEMHADNPAAIQTVVLQRDDLQNGLLSTCRELSRATAELERAWREYDKLEYDVTVTRNQMQEQLDHLGEVQTESAGIQRAQIQKELWRIQDVMEGLSKHKQQRGTTEIGMIGSKPFSTVKYKNEGPDYRLYKSEPELTTVAEVDESNGEEKSEPVSEIETSVVKGSHFPVGVVPPRAKSPTPESSTIASYVTLRKTKKMMDLRTERPRSAVEQLCLAESTRPRMTVEEQMERIRRHQQACLREKKKGLNVIGASDQSPLQSPSNLRDNPFRTTQTRRRDDKELDTAIRENDVKPDHETPATEIVQLKETEPQNVDFSKELKKTENISYEMLFEPEPNGVNSVEMMDKERNKDKMPEDVTFSPQDETQTANHKPEEHPEENTKNSVDEQEETVISYESTPEVSRGNQTMAVKSLSPSPESSASPVPSTQPQLTEGSHFMCV

By UniProt entry, the sequences of proteins in these tests, tags left out. Where a name states a change or a piece, a line headed by the entry shows the natural chain unless it says otherwise. Chains listed by the source or under a name are the forms on record and can include a tag or linker. Residues count along the entry.
UniProt O43184: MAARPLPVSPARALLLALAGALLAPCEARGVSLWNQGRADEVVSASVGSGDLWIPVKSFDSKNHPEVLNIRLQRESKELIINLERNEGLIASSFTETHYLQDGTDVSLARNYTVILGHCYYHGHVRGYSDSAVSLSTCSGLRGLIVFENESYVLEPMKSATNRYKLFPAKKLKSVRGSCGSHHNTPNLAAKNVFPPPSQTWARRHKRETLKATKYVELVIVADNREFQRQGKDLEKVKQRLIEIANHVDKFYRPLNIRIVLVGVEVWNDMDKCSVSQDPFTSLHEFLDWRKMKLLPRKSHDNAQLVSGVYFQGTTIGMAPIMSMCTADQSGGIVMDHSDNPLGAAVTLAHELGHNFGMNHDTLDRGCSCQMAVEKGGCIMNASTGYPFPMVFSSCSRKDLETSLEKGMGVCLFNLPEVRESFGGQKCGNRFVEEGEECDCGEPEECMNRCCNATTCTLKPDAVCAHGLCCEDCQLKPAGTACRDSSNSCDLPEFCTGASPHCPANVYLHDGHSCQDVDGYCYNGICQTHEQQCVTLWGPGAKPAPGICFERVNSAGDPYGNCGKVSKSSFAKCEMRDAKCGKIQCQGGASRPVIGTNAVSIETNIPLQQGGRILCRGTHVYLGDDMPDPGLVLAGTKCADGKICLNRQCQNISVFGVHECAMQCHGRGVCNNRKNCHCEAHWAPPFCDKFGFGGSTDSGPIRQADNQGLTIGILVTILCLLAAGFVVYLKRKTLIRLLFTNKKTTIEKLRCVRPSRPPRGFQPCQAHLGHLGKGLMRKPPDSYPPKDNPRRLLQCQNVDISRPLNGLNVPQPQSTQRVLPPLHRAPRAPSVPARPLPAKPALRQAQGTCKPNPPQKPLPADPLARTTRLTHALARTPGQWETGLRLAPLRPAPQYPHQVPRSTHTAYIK
UniProt Q9H4A4: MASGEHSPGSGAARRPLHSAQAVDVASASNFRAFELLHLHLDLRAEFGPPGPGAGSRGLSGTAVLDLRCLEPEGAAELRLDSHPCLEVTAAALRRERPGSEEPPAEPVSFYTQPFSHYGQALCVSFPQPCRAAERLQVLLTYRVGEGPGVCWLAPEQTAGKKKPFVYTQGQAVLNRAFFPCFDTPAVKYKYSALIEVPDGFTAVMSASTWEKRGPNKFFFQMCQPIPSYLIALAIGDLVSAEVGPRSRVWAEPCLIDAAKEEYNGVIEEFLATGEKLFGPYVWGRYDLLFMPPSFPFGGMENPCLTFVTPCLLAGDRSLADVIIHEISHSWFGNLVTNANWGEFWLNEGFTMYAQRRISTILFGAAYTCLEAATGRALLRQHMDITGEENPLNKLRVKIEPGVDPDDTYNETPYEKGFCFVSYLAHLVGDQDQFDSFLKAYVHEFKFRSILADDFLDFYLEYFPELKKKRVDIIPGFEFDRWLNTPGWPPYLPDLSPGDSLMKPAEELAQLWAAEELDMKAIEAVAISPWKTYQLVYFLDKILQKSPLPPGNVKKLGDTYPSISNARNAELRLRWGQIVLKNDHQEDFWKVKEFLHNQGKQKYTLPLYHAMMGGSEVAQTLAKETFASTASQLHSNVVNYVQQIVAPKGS
UniProt Q5JRA6, residues 23-1907: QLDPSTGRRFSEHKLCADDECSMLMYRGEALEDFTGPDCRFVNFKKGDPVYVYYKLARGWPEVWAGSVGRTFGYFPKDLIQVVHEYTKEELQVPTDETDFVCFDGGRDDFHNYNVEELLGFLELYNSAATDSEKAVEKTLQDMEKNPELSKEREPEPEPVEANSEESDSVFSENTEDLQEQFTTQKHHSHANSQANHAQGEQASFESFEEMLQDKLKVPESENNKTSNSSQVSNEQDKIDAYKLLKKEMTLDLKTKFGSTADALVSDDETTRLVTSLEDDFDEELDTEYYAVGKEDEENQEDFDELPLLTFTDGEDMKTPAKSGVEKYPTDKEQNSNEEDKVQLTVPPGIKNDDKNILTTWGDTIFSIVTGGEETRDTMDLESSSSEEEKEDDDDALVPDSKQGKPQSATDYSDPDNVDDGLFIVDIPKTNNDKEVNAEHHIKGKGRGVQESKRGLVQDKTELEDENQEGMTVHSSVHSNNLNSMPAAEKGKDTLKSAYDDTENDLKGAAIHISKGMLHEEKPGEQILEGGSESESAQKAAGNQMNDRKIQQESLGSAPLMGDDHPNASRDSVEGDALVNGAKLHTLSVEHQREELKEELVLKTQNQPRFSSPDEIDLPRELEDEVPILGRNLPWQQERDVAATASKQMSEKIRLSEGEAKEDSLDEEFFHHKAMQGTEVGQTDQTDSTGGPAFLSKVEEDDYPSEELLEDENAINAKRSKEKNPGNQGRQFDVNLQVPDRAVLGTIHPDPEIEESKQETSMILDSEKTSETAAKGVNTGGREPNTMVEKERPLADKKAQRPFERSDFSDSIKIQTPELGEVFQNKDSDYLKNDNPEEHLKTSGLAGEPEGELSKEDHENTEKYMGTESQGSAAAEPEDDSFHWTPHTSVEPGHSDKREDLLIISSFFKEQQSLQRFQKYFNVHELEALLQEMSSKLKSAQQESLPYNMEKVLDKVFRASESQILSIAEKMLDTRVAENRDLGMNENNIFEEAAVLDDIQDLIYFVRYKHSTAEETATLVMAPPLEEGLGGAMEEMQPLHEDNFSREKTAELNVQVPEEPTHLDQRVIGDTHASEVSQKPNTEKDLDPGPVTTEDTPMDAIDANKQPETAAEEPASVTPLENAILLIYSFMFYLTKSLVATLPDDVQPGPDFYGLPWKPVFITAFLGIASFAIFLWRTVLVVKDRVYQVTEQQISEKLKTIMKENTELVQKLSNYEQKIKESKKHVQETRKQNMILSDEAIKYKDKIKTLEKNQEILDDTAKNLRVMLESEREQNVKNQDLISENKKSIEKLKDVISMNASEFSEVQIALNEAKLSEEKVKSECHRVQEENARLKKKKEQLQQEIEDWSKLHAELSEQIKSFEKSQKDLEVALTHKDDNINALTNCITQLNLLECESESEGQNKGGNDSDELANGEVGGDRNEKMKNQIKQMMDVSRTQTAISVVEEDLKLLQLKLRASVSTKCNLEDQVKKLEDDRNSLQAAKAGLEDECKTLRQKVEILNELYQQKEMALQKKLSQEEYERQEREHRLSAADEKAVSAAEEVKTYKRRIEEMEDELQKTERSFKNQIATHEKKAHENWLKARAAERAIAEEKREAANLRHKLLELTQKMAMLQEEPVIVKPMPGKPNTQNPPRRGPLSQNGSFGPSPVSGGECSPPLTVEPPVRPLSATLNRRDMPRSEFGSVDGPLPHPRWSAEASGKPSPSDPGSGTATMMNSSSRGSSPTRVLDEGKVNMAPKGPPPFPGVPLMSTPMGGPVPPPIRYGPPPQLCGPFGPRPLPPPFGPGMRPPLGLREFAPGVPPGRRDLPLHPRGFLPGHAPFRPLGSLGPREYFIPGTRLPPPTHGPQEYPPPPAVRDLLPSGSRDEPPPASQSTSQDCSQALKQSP
Isoform USP25m of Ubiquitin carboxyl-terminal hydrolase 25 (Q9UHP3-3, form named): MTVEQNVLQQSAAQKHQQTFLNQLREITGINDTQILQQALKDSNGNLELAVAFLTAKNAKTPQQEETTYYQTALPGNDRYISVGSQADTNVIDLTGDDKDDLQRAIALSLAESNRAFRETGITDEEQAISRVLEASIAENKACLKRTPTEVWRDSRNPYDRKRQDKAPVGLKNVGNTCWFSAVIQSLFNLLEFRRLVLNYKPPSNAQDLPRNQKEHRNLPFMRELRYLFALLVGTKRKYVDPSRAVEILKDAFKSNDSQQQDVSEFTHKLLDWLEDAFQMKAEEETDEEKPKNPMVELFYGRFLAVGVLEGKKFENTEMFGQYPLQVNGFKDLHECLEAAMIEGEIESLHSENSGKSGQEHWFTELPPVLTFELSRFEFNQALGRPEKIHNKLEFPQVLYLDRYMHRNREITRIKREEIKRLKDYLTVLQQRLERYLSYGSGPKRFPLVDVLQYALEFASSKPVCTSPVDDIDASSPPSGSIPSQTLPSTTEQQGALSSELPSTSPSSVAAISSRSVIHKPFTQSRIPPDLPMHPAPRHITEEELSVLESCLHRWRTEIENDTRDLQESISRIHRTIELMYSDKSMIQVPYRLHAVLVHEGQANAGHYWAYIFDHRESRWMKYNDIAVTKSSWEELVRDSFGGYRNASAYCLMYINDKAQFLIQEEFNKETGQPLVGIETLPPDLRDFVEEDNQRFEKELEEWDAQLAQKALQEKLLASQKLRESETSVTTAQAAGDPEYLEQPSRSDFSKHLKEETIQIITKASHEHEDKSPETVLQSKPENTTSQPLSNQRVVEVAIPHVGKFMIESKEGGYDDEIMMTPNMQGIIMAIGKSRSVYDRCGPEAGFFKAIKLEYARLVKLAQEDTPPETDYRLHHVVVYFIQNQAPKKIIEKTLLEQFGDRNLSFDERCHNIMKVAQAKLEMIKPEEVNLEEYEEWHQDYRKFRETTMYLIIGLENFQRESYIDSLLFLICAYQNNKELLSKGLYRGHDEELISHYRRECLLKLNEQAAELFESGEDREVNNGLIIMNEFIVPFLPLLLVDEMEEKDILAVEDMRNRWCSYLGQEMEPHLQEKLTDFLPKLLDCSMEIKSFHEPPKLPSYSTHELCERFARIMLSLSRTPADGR
UniProt Q13956: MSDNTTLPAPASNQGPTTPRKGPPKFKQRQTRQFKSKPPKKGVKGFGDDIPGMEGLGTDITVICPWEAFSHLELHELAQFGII
UniProt O94916: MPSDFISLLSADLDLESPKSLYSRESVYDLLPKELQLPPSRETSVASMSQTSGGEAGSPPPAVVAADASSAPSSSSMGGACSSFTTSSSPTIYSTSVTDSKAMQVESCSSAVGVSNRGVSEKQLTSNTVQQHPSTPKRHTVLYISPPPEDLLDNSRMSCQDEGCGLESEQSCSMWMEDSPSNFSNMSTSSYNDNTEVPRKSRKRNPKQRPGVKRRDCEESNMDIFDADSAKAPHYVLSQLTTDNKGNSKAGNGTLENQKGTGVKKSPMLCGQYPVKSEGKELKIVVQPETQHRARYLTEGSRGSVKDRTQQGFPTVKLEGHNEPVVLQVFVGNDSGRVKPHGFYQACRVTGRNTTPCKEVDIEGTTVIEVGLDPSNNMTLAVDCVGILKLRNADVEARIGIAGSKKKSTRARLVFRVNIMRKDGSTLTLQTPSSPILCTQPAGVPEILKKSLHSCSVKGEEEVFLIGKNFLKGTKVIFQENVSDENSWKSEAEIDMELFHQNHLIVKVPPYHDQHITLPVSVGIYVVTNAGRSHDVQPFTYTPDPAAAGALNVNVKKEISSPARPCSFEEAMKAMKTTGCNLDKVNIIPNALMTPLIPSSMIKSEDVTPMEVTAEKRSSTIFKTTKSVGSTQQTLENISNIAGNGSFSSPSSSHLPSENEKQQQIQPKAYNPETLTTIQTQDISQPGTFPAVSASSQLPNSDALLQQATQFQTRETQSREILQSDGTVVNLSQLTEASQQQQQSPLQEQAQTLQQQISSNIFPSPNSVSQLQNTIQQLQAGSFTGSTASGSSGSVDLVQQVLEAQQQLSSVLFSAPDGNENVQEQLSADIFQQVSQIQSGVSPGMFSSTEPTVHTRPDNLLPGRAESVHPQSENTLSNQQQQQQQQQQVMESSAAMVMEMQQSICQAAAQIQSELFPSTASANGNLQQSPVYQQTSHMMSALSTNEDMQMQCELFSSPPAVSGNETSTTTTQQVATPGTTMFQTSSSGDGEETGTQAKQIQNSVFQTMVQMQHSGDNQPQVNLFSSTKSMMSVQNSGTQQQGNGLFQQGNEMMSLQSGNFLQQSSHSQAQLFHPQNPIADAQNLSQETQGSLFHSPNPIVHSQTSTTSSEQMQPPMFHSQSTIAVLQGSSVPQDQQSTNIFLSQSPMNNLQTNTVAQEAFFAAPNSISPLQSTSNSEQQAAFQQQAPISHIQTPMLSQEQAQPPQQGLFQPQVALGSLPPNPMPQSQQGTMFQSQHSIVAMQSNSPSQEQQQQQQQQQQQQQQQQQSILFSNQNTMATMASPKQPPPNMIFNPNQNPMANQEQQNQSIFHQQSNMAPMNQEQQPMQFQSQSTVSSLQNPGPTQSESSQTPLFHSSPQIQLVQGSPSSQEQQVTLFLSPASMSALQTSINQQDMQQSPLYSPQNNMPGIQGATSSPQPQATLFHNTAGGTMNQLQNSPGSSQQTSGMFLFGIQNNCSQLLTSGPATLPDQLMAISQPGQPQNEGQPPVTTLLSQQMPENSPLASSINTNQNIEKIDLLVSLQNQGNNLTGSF

Results are given in words; binding and its absence hold for the method and conditions named. In cells and extracts the contact can be indirect. Here binding means that the protein was enriched with, or labelled near, the bait; the list need not be complete.

In article PMC5940405 one finds binding data, which are given here for 15 molecules.

The experiment has as its target GFP-ADAM12L fusion protein (UniProt O43184). The experiment in a line: affinity purification with mass spectrometry; anti-ADAM12L immunoprecipitates from extracts of ADAM12L-overexpressing MCF10A cells, rabbit IgG as control; SDS-PAGE, in-gel trypsin digestion, LC-MS/MS; proteins found only with ADAM12L, filtered with CRAPome.
As for “spectrin repeat containing, nuclear envelope 2 (from UniProt Q8WXH0 1-6885)”, the binding entry is “binds”.

Turning to “inositol 1,4,5-trisphosphate receptor type 3 (from UniProt Q14573 1-2671)”, the binding entry was “binds”.

On to “Aminopeptidase B (from UniProt Q9H4A4 1-650)”, for which the binding entry is reported as “binds”.

For the molecule “citron rho-interacting serine/threonine kinase (from UniProt O14578 1-2027)”, the binding result was “binds”.

In the case of “melanoma inhibitory activity family member 3 (from UniProt Q5JRA6 23-1907)”, the binding entry is given as “binds”.

For “Isoform USP25m of Ubiquitin carboxyl-terminal hydrolase 25 (from UniProt Q9UHP3-3 1-1125)”, the binding entry is “binds”.

Regarding “nucleoporin 205kDa (from UniProt Q92621 1-2012)”, the binding result is recorded as “binds”.

Take “Isoform B of AP-2 complex subunit alpha-1 (from UniProt O95782-2 1-955)”: the binding entry is “binds”.

Consider “dedicator of cytokinesis 10 (from UniProt Q96BY6 1-2186)”, for which the binding entry is recorded as “binds”.

Regarding “phosphodiesterase 6H (from UniProt Q13956 1-83)”, the binding result is recorded as “binds”.

With “nuclear factor of activated T-cells 5, tonicity-responsive (from UniProt O94916 1-1531)”, the binding result was “binds”.

As for “AFG3 like matrix AAA peptidase subunit 2 (from UniProt Q9Y4W6 67-797)”, the binding result is “binds”.

With B1, the binding result is reported as “binds”.

Take B2: the binding entry is reported as “binds”.

Regarding B3, the binding result is “binds”.
